These results are taken from patent publication US20230096824A1.

These are yes or no findings as the source states them, for the method shown. Some entries that bind do so weakly or less than the wild type. Sequences can lack the tags named with a protein.

In the experiment the target is T1, human TM4SF1 (transmembrane-4 L six family member-1) (human) (UniProt P30408).
T1 sequence: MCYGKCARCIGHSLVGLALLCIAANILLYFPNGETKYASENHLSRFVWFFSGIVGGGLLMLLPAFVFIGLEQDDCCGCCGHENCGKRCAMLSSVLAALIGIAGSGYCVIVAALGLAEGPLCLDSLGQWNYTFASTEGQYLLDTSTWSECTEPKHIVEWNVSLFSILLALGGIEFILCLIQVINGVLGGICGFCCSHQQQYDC
The experiment is described as follows: cell-based flow cytometry on HUVEC cells.

B1: AGX-A07 antibody without Fc region mutations (antibody, V domains shown)
VH: QIQLVQSGPELKKPGETVKISCKASGYTFTNYGVKWVKQAPGKDLKWMGWINTYTGNPIYAADFKGRFAFSLETSASTAFLQINNLKNEDTATYFCVRFQYGDYRYFDVWGAGTTVTVSS
VL: QIILSQSPAILSASPGEKVTMTCRANSGISFINWYQQKPGSSPKPWIYGTANLASGVPARFGGSGSGTSYSLTISRVEAEDAATYYCQQWSSNPLTFGAGTKLELR
B1: the binding entry was “binds”.

B2: AGX-A07 variant comprising N297C in combination with the mutations M252Y, S254T, and T256E (the "YTEC" variant) (antibody, V domains shown)
VH: QIQLVQSGPELKKPGETVKISCKASGYTFTNYGVKWVKQAPGKDLKWMGWINTYTGNPIYAADFKGRFAFSLETSASTAFLQINNLKNEDTATYFCVRFQYGDYRYFDVWGAGTTVTVSS
VL: QIILSQSPAILSASPGEKVTMTCRANSGISFINWYQQKPGSSPKPWIYGTANLASGVPARFGGSGSGTSYSLTISRVEAEDAATYYCQQWSSNPLTFGAGTKLELR
For B2, the binding entry is given as “binds”.

B3: AGX-A07 variant comprising Fc region mutation N297C (the "C" variant) (antibody, V domains shown)
VH: QIQLVQSGPELKKPGETVKISCKASGYTFTNYGVKWVKQAPGKDLKWMGWINTYTGNPIYAADFKGRFAFSLETSASTAFLQINNLKNEDTATYFCVRFQYGDYRYFDVWGAGTTVTVSS
VL: QIILSQSPAILSASPGEKVTMTCRANSGISFINWYQQKPGSSPKPWIYGTANLASGVPARFGGSGSGTSYSLTISRVEAEDAATYYCQQWSSNPLTFGAGTKLELR
As to B3, the binding result was “binds”.
